This is an account of results in article PMC4054954 (Brain research, 2011).

The subject of the assay is HT-22 cells. The assay is described as follows: HT-22 cell-based glutamate cytoprotection assay. Details: species or system murine. The following applies: Mus musculus, HT-22, read-out: cytoprotective EC50.

As for `O=C(CCCN1CCC(O)(c2ccc(Cl)cc2)CC1)c1ccc(F)cc1` [haloperidol], the EC50 (commonly the concentration giving half of the maximal effect) worked out at 5.9 ± 2.1 nM.
